This note sets out measurements from publication PMC6356275.

Chains of the proteins cited; added tags and fusions are not shown.
UniProt P08362: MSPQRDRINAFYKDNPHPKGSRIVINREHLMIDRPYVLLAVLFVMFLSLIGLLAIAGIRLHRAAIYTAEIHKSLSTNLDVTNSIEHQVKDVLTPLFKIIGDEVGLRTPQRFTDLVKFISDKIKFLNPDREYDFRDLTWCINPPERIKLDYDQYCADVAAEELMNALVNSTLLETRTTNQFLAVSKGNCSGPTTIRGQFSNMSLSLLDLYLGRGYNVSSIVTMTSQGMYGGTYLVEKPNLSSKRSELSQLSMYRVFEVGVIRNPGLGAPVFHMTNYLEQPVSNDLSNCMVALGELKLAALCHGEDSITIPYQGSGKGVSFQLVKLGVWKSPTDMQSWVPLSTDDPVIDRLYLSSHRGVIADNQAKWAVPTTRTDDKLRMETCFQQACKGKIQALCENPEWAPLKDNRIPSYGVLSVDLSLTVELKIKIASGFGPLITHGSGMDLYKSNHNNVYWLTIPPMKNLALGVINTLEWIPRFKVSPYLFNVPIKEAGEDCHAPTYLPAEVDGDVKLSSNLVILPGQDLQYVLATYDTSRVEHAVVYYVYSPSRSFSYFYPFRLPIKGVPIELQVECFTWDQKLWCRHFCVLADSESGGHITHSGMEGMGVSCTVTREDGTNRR

These are yes or no findings as the source states them, for the method shown. In cells and extracts the contact can be indirect. Where a sequence is shown, tags or fusion partners need not be part of it.

In this test the target is T1, KDELR2-Flag (human KDELR2, ER protein retention receptor) (human) (UniProt P33947).
T1 sequence: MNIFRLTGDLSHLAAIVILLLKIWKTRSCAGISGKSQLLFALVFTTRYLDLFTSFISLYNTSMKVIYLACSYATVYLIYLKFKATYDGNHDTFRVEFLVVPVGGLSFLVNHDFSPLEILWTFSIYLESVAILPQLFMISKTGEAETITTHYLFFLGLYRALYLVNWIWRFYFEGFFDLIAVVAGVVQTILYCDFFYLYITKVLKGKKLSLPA
The test is described as follows: co-IP.

Regarding “measles virus hemagglutinin (H) protein (from UniProt P08362 1-617)”, the binding entry is listed as “no binding”.
